The record followed here is the supplement of paper PMC11006884.

Chains of the proteins cited; added tags and fusions are not shown. Lines headed by an entry give the natural chain unless they say otherwise; changes in a name come on top.
UniProt P05386, whole entry, looked up: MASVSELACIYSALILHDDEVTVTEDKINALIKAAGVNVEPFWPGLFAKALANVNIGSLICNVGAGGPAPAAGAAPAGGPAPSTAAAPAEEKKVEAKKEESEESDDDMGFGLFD
UniProt O95400: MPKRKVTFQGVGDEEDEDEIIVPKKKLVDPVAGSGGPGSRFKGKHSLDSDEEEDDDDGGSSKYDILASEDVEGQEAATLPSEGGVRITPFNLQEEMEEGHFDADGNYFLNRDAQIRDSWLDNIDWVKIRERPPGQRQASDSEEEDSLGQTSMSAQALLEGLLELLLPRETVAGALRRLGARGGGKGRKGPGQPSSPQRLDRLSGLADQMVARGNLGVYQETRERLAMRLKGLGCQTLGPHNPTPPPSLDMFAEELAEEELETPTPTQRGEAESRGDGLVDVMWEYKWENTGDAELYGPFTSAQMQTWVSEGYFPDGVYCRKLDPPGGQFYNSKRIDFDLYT
UniProt O94822: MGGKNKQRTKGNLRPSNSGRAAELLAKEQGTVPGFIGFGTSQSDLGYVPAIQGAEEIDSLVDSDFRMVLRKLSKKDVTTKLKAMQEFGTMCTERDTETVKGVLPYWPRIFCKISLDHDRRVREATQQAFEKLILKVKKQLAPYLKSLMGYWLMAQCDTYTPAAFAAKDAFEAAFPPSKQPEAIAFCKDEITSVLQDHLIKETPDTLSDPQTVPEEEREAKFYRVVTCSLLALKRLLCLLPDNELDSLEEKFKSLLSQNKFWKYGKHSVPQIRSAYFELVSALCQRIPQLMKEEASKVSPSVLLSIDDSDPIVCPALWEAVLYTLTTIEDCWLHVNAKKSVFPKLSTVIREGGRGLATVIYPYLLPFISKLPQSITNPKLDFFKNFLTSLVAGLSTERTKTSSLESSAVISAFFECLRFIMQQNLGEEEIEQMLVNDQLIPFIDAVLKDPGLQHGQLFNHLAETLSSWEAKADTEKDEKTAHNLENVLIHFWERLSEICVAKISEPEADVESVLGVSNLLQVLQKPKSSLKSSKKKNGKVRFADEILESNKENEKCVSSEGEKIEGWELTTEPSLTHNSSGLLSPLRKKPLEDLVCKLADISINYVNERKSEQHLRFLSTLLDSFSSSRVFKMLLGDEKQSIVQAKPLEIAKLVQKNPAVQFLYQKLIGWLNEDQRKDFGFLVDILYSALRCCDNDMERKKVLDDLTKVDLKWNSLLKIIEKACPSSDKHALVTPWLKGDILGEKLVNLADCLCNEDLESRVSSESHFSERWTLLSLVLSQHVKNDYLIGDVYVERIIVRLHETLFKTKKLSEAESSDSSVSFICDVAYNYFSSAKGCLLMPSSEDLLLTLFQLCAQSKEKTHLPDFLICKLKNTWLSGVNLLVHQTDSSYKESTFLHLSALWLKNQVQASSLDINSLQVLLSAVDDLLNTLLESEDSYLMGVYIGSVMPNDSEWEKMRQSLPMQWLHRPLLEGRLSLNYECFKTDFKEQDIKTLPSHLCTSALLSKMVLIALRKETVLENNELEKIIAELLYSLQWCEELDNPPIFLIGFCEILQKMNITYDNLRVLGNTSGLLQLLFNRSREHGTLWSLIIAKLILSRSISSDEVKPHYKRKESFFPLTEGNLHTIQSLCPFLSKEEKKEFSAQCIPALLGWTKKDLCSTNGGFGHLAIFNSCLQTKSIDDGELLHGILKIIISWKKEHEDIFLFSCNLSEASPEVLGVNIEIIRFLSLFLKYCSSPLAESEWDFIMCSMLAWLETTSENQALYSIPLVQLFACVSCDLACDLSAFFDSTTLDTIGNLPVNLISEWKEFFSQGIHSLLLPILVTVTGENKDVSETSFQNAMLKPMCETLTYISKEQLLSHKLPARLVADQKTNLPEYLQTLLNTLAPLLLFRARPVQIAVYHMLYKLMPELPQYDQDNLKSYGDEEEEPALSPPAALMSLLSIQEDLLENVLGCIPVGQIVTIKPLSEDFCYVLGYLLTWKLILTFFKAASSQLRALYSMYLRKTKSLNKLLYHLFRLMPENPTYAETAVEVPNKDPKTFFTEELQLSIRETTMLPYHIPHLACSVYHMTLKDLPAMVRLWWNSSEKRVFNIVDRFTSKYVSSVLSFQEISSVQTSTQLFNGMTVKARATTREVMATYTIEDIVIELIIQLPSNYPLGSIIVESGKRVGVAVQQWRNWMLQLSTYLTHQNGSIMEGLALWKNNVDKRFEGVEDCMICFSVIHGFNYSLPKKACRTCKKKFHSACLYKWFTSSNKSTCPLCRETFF
UniProt O95628: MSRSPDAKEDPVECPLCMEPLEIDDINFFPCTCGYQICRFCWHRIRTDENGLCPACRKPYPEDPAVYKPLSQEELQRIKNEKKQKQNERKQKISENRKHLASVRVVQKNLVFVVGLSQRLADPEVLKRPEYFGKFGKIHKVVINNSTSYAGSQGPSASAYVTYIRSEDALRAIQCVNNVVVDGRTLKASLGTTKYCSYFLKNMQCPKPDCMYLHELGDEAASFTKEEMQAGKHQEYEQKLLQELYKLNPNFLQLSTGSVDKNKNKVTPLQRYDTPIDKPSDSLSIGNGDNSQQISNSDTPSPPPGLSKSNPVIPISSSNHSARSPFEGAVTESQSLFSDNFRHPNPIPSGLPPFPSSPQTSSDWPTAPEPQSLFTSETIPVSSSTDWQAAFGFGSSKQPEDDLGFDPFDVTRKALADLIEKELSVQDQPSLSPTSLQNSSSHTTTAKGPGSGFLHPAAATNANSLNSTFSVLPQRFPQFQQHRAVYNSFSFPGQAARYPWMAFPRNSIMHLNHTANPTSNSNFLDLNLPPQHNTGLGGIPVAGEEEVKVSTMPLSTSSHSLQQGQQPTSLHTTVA
UniProt P00441, whole entry, looked up: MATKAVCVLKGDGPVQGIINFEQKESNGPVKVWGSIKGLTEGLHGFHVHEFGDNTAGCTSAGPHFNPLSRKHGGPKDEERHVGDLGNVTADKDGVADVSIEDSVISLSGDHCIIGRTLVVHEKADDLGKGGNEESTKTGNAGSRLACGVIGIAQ
UniProt O95613: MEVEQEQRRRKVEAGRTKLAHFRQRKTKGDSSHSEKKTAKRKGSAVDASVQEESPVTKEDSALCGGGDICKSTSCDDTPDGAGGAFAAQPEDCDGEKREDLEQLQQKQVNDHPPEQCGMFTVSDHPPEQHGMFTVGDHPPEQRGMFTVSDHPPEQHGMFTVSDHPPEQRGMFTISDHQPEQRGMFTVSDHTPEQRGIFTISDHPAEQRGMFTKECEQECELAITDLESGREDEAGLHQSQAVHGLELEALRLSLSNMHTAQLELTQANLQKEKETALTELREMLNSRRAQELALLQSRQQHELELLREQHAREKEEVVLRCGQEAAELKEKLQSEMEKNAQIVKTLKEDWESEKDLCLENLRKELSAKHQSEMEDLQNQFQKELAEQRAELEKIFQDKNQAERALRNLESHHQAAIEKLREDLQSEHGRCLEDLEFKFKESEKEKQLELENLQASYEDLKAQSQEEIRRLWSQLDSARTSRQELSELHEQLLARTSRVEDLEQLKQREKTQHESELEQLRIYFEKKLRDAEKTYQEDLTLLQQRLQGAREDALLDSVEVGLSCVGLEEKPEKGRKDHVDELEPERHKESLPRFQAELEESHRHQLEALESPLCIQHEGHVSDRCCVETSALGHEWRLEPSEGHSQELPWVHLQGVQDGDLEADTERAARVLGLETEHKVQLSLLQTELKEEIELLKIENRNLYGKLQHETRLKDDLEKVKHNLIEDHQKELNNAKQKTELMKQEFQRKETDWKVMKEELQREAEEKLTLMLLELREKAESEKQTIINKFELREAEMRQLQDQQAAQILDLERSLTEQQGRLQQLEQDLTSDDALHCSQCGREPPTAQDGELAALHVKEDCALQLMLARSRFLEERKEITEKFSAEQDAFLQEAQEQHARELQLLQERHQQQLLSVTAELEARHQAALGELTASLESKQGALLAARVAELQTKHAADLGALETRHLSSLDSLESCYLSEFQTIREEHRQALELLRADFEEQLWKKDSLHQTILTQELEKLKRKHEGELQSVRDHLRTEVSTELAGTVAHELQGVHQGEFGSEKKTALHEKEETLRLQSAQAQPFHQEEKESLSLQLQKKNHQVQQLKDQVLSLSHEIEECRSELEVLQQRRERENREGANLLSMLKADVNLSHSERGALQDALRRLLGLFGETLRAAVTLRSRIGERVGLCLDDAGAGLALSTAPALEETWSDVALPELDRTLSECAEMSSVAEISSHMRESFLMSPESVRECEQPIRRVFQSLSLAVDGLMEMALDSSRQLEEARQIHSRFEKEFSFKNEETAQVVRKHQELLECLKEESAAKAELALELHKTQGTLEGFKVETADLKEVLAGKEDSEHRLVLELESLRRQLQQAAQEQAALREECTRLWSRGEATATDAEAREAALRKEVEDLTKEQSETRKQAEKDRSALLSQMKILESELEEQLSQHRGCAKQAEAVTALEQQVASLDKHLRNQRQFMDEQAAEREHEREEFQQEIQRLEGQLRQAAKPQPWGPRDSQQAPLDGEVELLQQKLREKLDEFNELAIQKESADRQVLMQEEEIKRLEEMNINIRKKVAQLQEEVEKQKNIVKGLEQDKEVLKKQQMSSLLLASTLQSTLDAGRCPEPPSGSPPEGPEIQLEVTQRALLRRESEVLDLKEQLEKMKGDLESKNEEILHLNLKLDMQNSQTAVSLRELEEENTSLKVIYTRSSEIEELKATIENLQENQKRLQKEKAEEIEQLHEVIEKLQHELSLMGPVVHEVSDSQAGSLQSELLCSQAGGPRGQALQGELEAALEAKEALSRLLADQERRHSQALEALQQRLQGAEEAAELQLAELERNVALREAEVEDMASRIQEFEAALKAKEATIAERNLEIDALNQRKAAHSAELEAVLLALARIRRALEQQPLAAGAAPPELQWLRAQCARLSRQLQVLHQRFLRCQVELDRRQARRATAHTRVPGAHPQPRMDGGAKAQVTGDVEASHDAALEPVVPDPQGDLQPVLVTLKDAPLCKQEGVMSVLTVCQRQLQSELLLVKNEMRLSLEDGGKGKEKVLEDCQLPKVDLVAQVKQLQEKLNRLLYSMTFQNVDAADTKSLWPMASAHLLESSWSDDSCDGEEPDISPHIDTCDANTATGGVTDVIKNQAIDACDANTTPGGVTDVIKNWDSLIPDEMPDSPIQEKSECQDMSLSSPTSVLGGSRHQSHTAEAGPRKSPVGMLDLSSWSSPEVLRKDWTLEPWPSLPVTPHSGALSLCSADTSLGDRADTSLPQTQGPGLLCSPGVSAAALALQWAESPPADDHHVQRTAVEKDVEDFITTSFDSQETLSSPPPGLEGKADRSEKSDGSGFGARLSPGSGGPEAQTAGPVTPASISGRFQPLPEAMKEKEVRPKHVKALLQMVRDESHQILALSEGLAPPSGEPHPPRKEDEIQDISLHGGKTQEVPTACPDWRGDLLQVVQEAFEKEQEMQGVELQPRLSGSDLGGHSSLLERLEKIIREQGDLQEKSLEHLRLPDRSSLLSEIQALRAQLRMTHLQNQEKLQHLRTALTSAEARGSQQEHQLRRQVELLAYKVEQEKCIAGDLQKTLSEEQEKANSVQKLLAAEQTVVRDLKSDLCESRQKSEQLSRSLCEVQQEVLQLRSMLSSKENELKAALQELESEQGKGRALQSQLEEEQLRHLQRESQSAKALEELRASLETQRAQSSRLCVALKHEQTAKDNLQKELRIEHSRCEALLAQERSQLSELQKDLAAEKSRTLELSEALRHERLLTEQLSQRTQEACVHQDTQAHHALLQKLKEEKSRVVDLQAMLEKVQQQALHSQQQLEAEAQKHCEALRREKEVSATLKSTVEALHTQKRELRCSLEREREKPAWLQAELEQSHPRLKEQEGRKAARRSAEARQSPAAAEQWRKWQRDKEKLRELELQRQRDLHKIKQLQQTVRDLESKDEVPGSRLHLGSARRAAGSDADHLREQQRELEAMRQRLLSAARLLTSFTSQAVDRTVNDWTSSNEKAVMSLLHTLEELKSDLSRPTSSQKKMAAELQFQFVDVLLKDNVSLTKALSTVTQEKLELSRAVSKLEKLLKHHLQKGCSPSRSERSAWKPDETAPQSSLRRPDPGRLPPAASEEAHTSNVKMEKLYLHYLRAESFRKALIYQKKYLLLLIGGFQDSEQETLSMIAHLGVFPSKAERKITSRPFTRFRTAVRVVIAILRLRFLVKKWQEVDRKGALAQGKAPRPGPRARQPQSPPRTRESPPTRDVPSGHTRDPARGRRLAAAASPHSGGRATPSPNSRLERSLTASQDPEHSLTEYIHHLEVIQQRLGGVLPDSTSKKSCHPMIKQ
UniProt O95861: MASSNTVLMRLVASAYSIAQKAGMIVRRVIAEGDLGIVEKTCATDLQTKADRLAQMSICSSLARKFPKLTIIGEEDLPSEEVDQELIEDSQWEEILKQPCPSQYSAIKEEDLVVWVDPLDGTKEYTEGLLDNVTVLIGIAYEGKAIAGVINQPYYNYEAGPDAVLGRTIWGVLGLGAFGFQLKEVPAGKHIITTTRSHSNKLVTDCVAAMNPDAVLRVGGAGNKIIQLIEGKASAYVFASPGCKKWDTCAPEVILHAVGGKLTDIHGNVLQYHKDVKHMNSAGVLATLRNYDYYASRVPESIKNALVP

The entries are a selection whose mix differs from that of the whole data set.

Compound in this assay: COC(=O)C#Cc1ccccc1 [methyl 3-phenylpropiolate]
In words: log2 ratio of iodoacetamide-alkyne labeling of the cysteine site, DMSO over compound (competition); higher = stronger covalent engagement of the cysteine by the compound, active = 1 or more. As to conditions: 500 µM; treatment time 1 h; system: HEK293T cell lysate. The gist of the method: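 HEK293T lysate (2 mg/mL) was treated with DMSO or electrophile (500 µM, 1 h, ambient temperature), then iodoacetamide alkyne (1 h), clicked to sCIP-TMT reagents, pooled, trypsin-digested overnight at 37 °C, streptavidin-enriched and acid-eluted. Peptides were run on Orbitrap Eclipse LC-MS/MS with FAIMS and quantified in FragPipe. The log2 competition ratio per cysteine is mean control-channel over mean compound-channel reporter intensity. Duplicate channels and three replicates were used, and cysteines quantified in only one replicate were excluded.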
RPLP1 C9 (UniProt P05386): the “log2 ratio of iodoacetamide-alkyne labeling” value (from here on “log2 ratio”) is inactive: 0.29.

As for LDHA C131 (UniProt P00338), the “log2 ratio” value was inactive: 0.589. The same measure for TP53 C275 (UniProt P04637): inactive: 0.619.

As to NADK C79 (UniProt O95544), the “log2 ratio” value is inactive: 0.129.

RPN1 C477 (UniProt P04843): the “log2 ratio” value was inactive: 0.519.

In the case of UniProt O95071_C2314, the “log2 ratio” value was inactive: 0.482.

Turning to EPRS C1487 (UniProt P07814), the “log2 ratio” value was inactive: 0.0745. As to KIF4A C269 (UniProt O95239), the “log2 ratio” value is inactive: 0.0303. As to TP53 C141 (UniProt P04637), the “log2 ratio” value was inactive: 0.359. The same measure for CD2BP2 C234 (UniProt O95400): inactive: -0.0767; for ACSL3 C450 (UniProt O95573): inactive: 0.0397; for LMNA C570 (UniProt P02545): inactive: 0.553.

As to ZRANB2 C71 (UniProt O95218), the “log2 ratio” value was inactive: 0.139. Regarding MOCS2 C10 (UniProt O96007), the “log2 ratio” value was inactive: 0.472.

As to UniProt O94822_C237, the “log2 ratio” value was inactive: 0.172. The same measure for SLC25A5 C160 (UniProt P05141): inactive: 0.177; for SVIL C26 (UniProt O95425): inactive: 0.503; for CNOT4 C175 (UniProt O95628): inactive: 0.0314. The same measure for PGLS C32 (UniProt O95336): inactive: 0.724. The figure for HPRT1 C23 (UniProt P00492) is inactive: 0.0449; for SVIL C671 (UniProt O95425) it is inactive: 0.341; for WIZ C1429 (UniProt O95785) it is inactive: 0.218. Consider UniProt P07437_C12, for which the “log2 ratio” value was inactive: 0.57. The figure for SOD1 C112 (UniProt P00441) is inactive: -0.0637; for ALDOA C178 (UniProt P04075) it is inactive: 0.345; for YEATS4 C210 (UniProt O95619) it is inactive: 0.231. The same measure for PCNT C563 (UniProt O95613): inactive: 0.197; for MBD3 C266 (UniProt O95983): inactive: 0.0164; for GOT2 C382 (UniProt P00505): inactive: 0.0137. The figure for GAPDH C152 (UniProt P04406) is inactive: 0.177; for UniProt P00491_C206 it is inactive: 0.134. With PPP1R3D C26 (UniProt O95685), the “log2 ratio” value is inactive: 0.305. The same measure for EPRS C1448 (UniProt P07814): inactive: 0.152; for UniProt P07437_C303: inactive: 0.421. The same measure for SLC25A5 C257 (UniProt P05141): inactive: 0.201.

On to POLR1A C937 (UniProt O95602), for which the “log2 ratio” value was inactive: 0.116. The figure for BPNT1 C206 (UniProt O95861) is inactive: 0.27.
